PubChem BioAssay AID504786 | Drosophila RNAi Screening Center – 2011
Screen: 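Knock-downs reducing HIF reporter induction by the iron chelator DFO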 (primary screen). Cells: Drosophila S2 cells with a stable HIF luciferase reporter. Reagent: long dsRNA against Drosophila genes, about 0.2 µg dsRNA per well of a 384-well plate. Time to read-out: three days of knock-down, then 20 h of DFO before reading. Challenge: desferrioxamine (DFO) at 100 µM, an iron chelator that mimics hypoxia, for 20 h. Measured: 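HIF reporter luminescence in cells given 100 µM DFO for 20 h, using the mouse ldh-a hypoxia-response element, scored as per-plate z-scores; higher means greater loss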. Direction: z-score: higher = stronger loss of HIF reporter signal.
In all, the deposit lists about 21,000 reagents; below is an unselected part of those that have a named target and a result. 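Primary screen; positive scores mean lost reporter signal, so the sign may be inverted from the usual convention.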 A plus sign joins genes that one reagent is predicted to hit. Reagent sequences are not shown.

no.	target	amplicon	z-score, replicate 1	z-score, replicate 2	z-score, replicate 3	z-score, replicate 4
1	CG17122	DRSC10245	-0.3	-0.2		
2	p-cup	DRSC19513	-0.3	-0.6		
3	D	DRSC11132	-0.2	-0.5		
4	SmydA-8	DRSC18797	-0.4	-0.5		
5	CG6724	DRSC02983	-0.3	-0.3		
6	Nhe2	DRSC03172	0.2	0.5		
7	Nhe2	DRSC03377	-0.4	-0.4		
8	CG17666	DRSC10276	-0.3	0.6		
9	Camta	DRSC06440	-0.3	0.3		
10	Camta	DRSC06441	-0.3	-0.4	4.2	2.6
11	Camta	DRSC07272	-0.4	-0.3		
12	CG1620	DRSC06603	-0.2	-0.2		
13	CG10845	DRSC14272	-0.2	-0.7		
14	Kr	DRSC04622	-0.2	0.4		
15	Ndc80	DRSC20221	-0.1	-0.2		
16	CG3225	DRSC00578	-0.3	-0.5		
17	Tep3	DRSC03452	0.1	-0.3		
18	Gr68a	DRSC10803	-0.3	-0.4		
19	CG11294	DRSC17777	-0.3	-0.4		
20	CG5561	DRSC00688	-0.1	-0.3		
21	Cyp4e1	DRSC07370	-0.3	-0.3		
22	Epac	DRSC04969	-0.8	-0.3		
23	Epac	DRSC04996	-0.1	0.2		
24	Epac	DRSC04997	-0.4	0.4		
25	CG14556	DRSC14899	-0.2	-0.8		
26	Elp4	DRSC02999	-0.4	-0.7		
27	CG15394	DRSC00408	0	-0.3		
28	Nt5b	DRSC19976	0	0.3		
29	Nt5b	DRSC19977	-0.3	-0.5		
30	Nt5b	DRSC19978	-0.2	0.7		
31	CG1791	DRSC18141	-0.3	-0.7		
32	CG14323	DRSC14802	0	-0.2		
33	CG14891	DRSC15013	-0.2	-0.6		
34	Tps1	DRSC00269	-0.3	-0.4		
35	egl	DRSC04682	-0.3	-0.7		
36	CG13038	DRSC09919	-0.1	0.2		
37	NFAT	DRSC18991	0.5	0.4		
38	NFAT	DRSC19393	0	0.5		
39	gfzf	DRSC12506	1.3	1.3		
40	hzg	DRSC10549	0.9	0.1		
41	CG18132	DRSC00518	0.1	0.6		
42	snoRNA:Me28S-A982b + Uhg4 + snoRNA:Me28S-G3255a + 1 more	DRSC05143	0	-0.1		
43	ck	DRSC03509	-0.3	-0.5		
44	CG3663	DRSC04402	0	0.3		
45	CG14034	DRSC02359	-0.2	-0.1		
46	CG7685	DRSC16285	0.1	-0.3		
47	smog	DRSC00334	-0.4	-0.4		
48	smog	DRSC00335	0.1	-0.5		
49	crq	DRSC00810	-0.1	-0.9		
50	tomboy20	DRSC14913	-0.2	0		
51	wg	DRSC03636	-0.3	-0.5		
52	Galphas	DRSC04616	-0.3	-0.6		
53	Roc2	DRSC07313	-0.2	-0.5		
54	vg	DRSC07715	-0.2	0	0	-0.4
55	CG8945	DRSC20129	-0.3	-0.7		
56	CG8945	DRSC20130	-0.3	0.2		
57	IA-2	DRSC00304	-0.1	0	-0.7	-0.1
58	IA-2	DRSC00652	-0.2	0		
59	Mkp + CG34140	DRSC08585	-0.2	-0.4		
60	CG10298	DRSC12522	-0.4	-0.1		
61	brv2	DRSC10226	0.2	0.1		
62	CG32407	DRSC09789	-0.2	-0.4		
63	CG31087	DRSC14253	-0.3	0.7		
64	CG1503	DRSC20512	-0.3	-0.3		
65	CR11235	DRSC20480	-0.5	-0.8		
66	Osi22	DRSC16442	-0.4	-0.5		
67	caly	DRSC07182	-0.3	-0.5		
68	ArgRS	DRSC20138	0.3	1.3		
69	CG16926	DRSC06637	-0.2	-0.5		
70	CG8204	DRSC07106	0.1	0.1		
71	CG42633	DRSC16061	-0.2	-0.7		
72	CG6511	DRSC10656	0	0.7		
73	CG5532	DRSC04509	0.1	-0.3		
74	Ccz1	DRSC08439	-0.1	0.1		
75	kkv	DRSC12315	-0.4	-0.5		
76	spz4	DRSC02410	0.5	0.1		
77	Nnf1a	DRSC06394	-0.3	0.1		
78	CG15499 (retired record)	DRSC15041	-0.1	-0.8		
79	CG15252	DRSC17981	-0.2	-0.9		
80	CG1371	DRSC06409	-0.3	0.6		
81	CG2701	DRSC18590	-0.2	-0.7		
82	NT5E-2	DRSC06893	-0.3	-0.5		
83	t-Grip91	DRSC01506	-0.3	-0.1		
84	Grl40a	DRSC03677	-0.1	-0.2		
85	CG15143	DRSC02444	-0.2	-1		
86	Mpi	DRSC16417	-0.1	-0.4		
87	CG17600	DRSC20638	-0.1	-0.3		
88	CG17600	DRSC20640	0.2	-0.3		
89	KP78a + KP78b	DRSC16721	-0.3	-0.4		
90	KP78a + KP78b	DRSC16722	-0.3	-0.2		
91	Ak1	DRSC10248	-0.2	-0.5		
92	CG34106	DRSC01578	0.4	-0.5		
93	CG13622	DRSC14624	-0.3	-0.3		
94	CG6398	DRSC19992	-0.2	-0.2		
95	Ggt-1	DRSC19993	-0.3	-0.6		
96	CG15124	DRSC06546	-0.3	-0.2		
97	CG18746	DRSC15383	-0.3	-0.2		
98	CG2104	DRSC12304	-0.3	-0.4		
99	CG15631	DRSC00466	-0.3	-0.2		
100	MED10	DRSC10474	0.2	0.6		
101	E(var)3-9	DRSC14451	-0.2	0.9		
102	Swt1	DRSC20028	-0.2	-0.5		
103	CG10588	DRSC11628	-0.3	0		
104	CG10948	DRSC09806	-0.3	-0.3		
105	Slob	DRSC02296	-0.1	-0.4		
106	qua	DRSC03598	-0.3	-0.4		
